Data published in PubChem BioAssay AID493027 (The Scripps Research Institute Molecular Screening Center, 2011).
The campaign covered roughly 2,000 compounds. About 45 (2%) were called active.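 The calls were made as follows: active = inhibition above the screen-wide mean inhibition plus 3 SD (cut at about 44% in these data); inactive = the rest.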 The list shows a part of the results.

Protein sequences, listed by entry. Tags and fused reporters are not part of them. Lines headed by an entry give the natural chain unless they say otherwise; changes in a name come on top.
UniProt O60240: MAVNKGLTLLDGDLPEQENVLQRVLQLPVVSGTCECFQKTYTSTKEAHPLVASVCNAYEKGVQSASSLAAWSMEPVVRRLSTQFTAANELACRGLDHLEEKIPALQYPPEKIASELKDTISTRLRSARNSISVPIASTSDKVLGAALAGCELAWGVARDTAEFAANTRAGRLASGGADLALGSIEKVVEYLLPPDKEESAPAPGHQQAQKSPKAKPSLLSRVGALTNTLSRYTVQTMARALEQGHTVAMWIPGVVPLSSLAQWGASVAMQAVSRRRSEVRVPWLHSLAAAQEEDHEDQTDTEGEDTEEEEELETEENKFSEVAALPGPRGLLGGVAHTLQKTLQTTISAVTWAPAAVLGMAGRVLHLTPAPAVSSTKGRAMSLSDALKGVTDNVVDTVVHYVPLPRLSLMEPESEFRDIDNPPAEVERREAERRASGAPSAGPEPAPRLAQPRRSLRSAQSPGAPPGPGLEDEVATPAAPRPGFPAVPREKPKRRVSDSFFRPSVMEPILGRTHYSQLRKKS
UniProt Q8WTS1: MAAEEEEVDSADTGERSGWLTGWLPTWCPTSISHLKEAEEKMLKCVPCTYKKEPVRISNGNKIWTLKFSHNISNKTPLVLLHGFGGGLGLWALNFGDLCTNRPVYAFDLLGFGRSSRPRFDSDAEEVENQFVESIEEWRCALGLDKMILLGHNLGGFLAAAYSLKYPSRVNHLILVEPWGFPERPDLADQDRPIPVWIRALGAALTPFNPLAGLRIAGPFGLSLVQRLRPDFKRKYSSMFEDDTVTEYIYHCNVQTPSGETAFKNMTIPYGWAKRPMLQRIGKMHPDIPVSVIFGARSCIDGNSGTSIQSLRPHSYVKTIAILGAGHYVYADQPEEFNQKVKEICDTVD

target: Perilipin-1 (Homo sapiens) + 1-acylglycerol-3-phosphate O-acyltransferase ABHD5 (Homo sapiens) (UniProt O60240+Q8WTS1); assay: blockers of ABHD5 binding to perilipin-1 – cell lysate, split luciferase complementation, luminescence, NIH validation set, pilot screen (AID 493027);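 also: 0% = DMSO wells with the 100% control not disclosed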; conditions: split G. princeps luciferase complementation, 4 h; at 7.9 µM, hits give high values

SMILES | inhibition
CC(=O)Oc1cc2oc(=O)cc(C)c2cc1OC(C)=O | inactive: -5.71%
O=C(NCCC(c1ccccc1)c1ccco1)c1cccs1 (stereo not given) | inactive: 9.41%
Cn1c2[n+](c3ccc(Cl)cc3c1=O)Cc1ccccc1-2 | inactive: 0.88%
CC(C)(C)[C@]1(O)CCN2C[C@H]3c4ccccc4CCc4cccc(c43)[C@@H]2C1 | inactive: -0.62%
CN1[C@@H]2CC[C@H]1CC(OC(=O)C(CO)c1ccccc1)C2 (stereo not given in full) | inactive: -16.1%
COc1ccc(C2=C(CN(C)C)C(c3ccccc3)c3ccccc3O2)cc1 (stereo not given) | inactive: 4.91%
CC1Cc2ccccc2N1NC(=O)c1ccc(Cl)c(S(N)(=O)=O)c1 (stereo not given) | inactive: -8.02%
COc1ccc(CNCCC2(C(C)C)CCOC(C)(C)C2)cc1 (stereo not given) | inactive: -6.33%
COc1ccc(C2CC(c3c(O)cc(C)oc3=O)=NCCS2)c(OC)c1 (stereo not given) | inactive: 4.66%
O=C(Cc1ccccc1[N+](=O)[O-])NCCCN1CCOCC1 | inactive: -7.14%
CCOC(=O)c1cccc(C(=O)OCC)n1 | inactive: -5.12%
COc1cc(Cl)cc2c1Sc1ccccc1/C2=C/CCN(C)C | inactive: 6.32%
O=C(COc1ccccc1)Nc1ccc2c(c1)C(=O)N(CC1CCCO1)C2=O (stereo not given) | inactive: -14.4%
O=C1C(Cc2c[nH]c3ccccc23)NC(=S)N1Cc1ccccc1 (stereo not given) | inactive: -4.43%
CCOc1ccccc1OCCOc1ccc(F)cc1 | inactive: -8.37%
O=C1CC2(CCCC2)CC(=O)N1CCCCN1CCN(c2ncccn2)CC1 | inactive: -11.6%
COc1ccc2c(CC(=O)NCC3CCC(C(=O)O)CC3)cc(=O)oc2c1 (stereo not given) | inactive: -2.79%
CC[C@H]1OC(=O)[C@H](C)[C@@H](O[C@H]2C[C@@](C)(OC)[C@@H](O)[C@H](C)O2)[C@H](C)[C@@H](O[C@@H]2O[C@H](C)C[C@H](N(C)C)[C@H]2O)[C@](C)(O)C[C@@H](C)[C@@H]2N[C@@H](COCCOC)O[C@H]([C@H]2C)[C@]1(C)O | inactive: -7.57%
CC(C)(C)n1c(=O)[nH]c2c(c1=O)CCC2 | inactive: -0.81%
COc1ccc(N2C(=O)[C@@H]3Cc4ccccc4CN3C2=O)cc1 | inactive: -7.22%
CCC(C(=O)OCCN(CC)CC)c1ccccc1 (stereo not given) | inactive: 38.8%
CN(C)c1ccc(CNCCC(Cc2ccccc2)c2ccco2)cc1 (stereo not given) | inactive: -15.2%
CCS(=O)(=O)Nc1cc(OC)c(OC)cc1Cc1nccc2cc(OC)c(OC)cc12 | inactive: -4.13%
CC(=O)Nc1ccc(S(=O)(=O)c2ccc(N)cc2)cc1 | inactive: -8.98%

SMILES | inhibition
Fc1ccc(-n2cc(CNCCc3ccccn3)c(-c3ccccc3Cl)n2)cc1 | inactive: 1.9%
CCCN1CCC(NC(=O)Nc2ccc(Br)cc2)CC1 | inactive: -9.54%
CCn1nc(C(=O)O)c(=O)c2cc3c(cc21)OCO3 | inactive: -13.5%
COc1cccc(=O)c2c(C)n(CC(=O)c3ccccc3)c(C)c12 | inactive: 22.5%
CC(C(=O)O)c1ccc(N2Cc3ccccc3C2=O)cc1 (stereo not given) | inactive: -8.66%
Cc1ccc(Cl)c(Nc2ccccc2C(=O)O)c1Cl | inactive: 15.7%
O=C1ON=C(c2ccc(Cl)cc2)/C1=C/c1ccc(O)cc1 | active: 82.8%
CCN1CCN(c2cc3c(cc2F)c(=O)c(C(=O)O)cn3C2CC2)CC1 | inactive: -15.2%
CC(C)N1C(=O)/C(=C\c2nc3ccccc3c(=O)[nH]2)c2ccccc21 | active: 70.2%
Cc1nnc(NS(=O)(=O)c2ccc(N)cc2)s1 | inactive: -2.95%
CC(=O)OCC(OC(C)=O)C(OC(C)=O)C(OC(C)=O)C(=O)Nc1cccc(C)c1 (stereo not given) | inactive: -6.24%
CC1CC(OC(=O)C(O)c2ccccc2)CC(C)(C)N1C (stereo not given) | inactive: 2.6%
CCCOc1ccc(-c2cc(C(=O)NCC3CCCO3)c3ccccc3n2)cc1 (stereo not given) | inactive: -2.49%
O=C(NCCc1c[nH]c2ccccc12)c1cccnc1 | inactive: 3.48%
COc1ccc(/C=C\c2nc(=O)c3ccccc3o2)cc1 | inactive: 0.84%
CC1(C)O[C@@H]2C[C@H]3[C@@H]4CCC5=CC(=O)C=C[C@]5(C)[C@@]4(F)[C@@H](O)C[C@]3(C)[C@]2(C(=O)CO)O1 | inactive: -6.78%
O=C(O)CCCc1ccccc1 | inactive: -0.6%
Cc1cnc(NC(=O)C2=C(O)c3ccccc3S(=O)(=O)N2C)s1 | inactive: -7.39%
Cc1cccc(C(=O)c2cccc(C)c2)c1 | inactive: -11.8%
O=C(CCC1CCCN(C(=O)c2ccsc2)C1)NCc1ccc(F)c(F)c1 (stereo not given) | inactive: -3.63%
COc1cc(C2CC(=O)NC3=C2C(=O)CC(C)(C)C3)ccc1O (stereo not given) | inactive: 4.1%
N#C/C(=C/c1ccccc1)C(=O)NCc1ccccc1 | active: 53.3%
Cc1ccc(N2CCN(C(=S)c3ccc(-c4cccc([N+](=O)[O-])c4)o3)CC2)cc1 | inactive: 4.66%
COc1ccc(-c2cc(=Nc3ccc(C)cc3)c3ccccc3o2)cc1 | inactive: 7.52%

Grouped by structure: those above with fluorine.
SMILES | inhibition
CCOc1ccccc1OCCOc1ccc(F)cc1 | inactive: -8.37%
Fc1ccc(-n2cc(CNCCc3ccccn3)c(-c3ccccc3Cl)n2)cc1 | inactive: 1.9%
CCN1CCN(c2cc3c(cc2F)c(=O)c(C(=O)O)cn3C2CC2)CC1 | inactive: -15.2%
CC1(C)O[C@@H]2C[C@H]3[C@@H]4CCC5=CC(=O)C=C[C@]5(C)[C@@]4(F)[C@@H](O)C[C@]3(C)[C@]2(C(=O)CO)O1 | inactive: -6.78%
O=C(CCC1CCCN(C(=O)c2ccsc2)C1)NCc1ccc(F)c(F)c1 (stereo not given) | inactive: -3.63%

Additional entries follow:

SMILES | inhibition
Cc1ccc(C(=O)NC(=S)NCCCN2CCOCC2)cc1 | inactive: -1.64%
O=C(NCCN1CCCCC1)c1c(O)c2ccccc2[nH]c1=O | inactive: -2.32%
CCN(CC)C1=C(Cl)C(=O)C(Cl)C12OCCO2 (stereo not given) | inactive: -5.32%
CC(C)CC(=O)OC1C(N2CCOCC2)c2c(ccc(/C=C/C(=O)N3CCOCC3)c2O)OC1(C)C (stereo not given) | inactive: 3.66%
Nc1cccc2c1nnn2C1OC(CO)C(O)C(O)C1O (stereo not given) | inactive: -5.44%
Cc1ccccc1C(=O)Oc1ccc(Sc2ccc(O)cc2)cc1 | inactive: -3.79%
CC1(C)CC(NC(=O)C23CCC(C)(C(=O)C2=O)C3(C)C)CC(C)(C)N1 (stereo not given) | inactive: -3.79%
N=c1c[n+](N2CCOCC2)[n-]o1 | inactive: -7.07%
CN1CCN(CCCN2c3ccccc3Sc3ccc(Cl)cc32)CC1 | inactive: 13.5%
COc1cccc2c1OCC1COc3c(c(=O)n(C)c(=O)n3C)C21 (stereo not given) | inactive: 0%
O=C(O)C(O)c1ccccc1 (stereo not given) | inactive: -10.2%
COc1ccc(-c2coc3cc(OC(=O)N4CCOCC4)ccc3c2=O)cc1 | inactive: -1.5%
CC(C)(C)C(=O)N1CCCC1C(=O)O (stereo not given) | inactive: -3.97%
COc1ccc(CCN(C)CCCC(C#N)(c2cc(OC)c(OC)c(OC)c2)C(C)C)cc1OC (stereo not given) | inactive: -7.19%
CSc1cccc(NC(=O)/C=C/c2ccccc2)c1 | inactive: -0.64%
COc1c2occc2c(OC)c2c(=O)cc(C)oc12 | inactive: -2.56%
CC(C)c1ccccc1OCCNC(=S)NC(=O)c1cccnc1 | inactive: 2.19%
O=c1[nH]c(=O)n(C2CCCO2)cc1F (stereo not given) | inactive: 0.75%
CC(NCCC(c1ccccc1)c1ccccc1)c1ccccc1 (stereo not given) | inactive: -1.09%
Oc1ccccc1OCCOc1ccccc1OCCOc1ccccc1O | inactive: 8.26%
CCOCC(=O)Nc1nc2ccccc2s1 | inactive: -3.63%
CC(C)c1ccc(NC(=O)CNS(=O)(=O)c2ccc(F)cc2)cc1 | inactive: 2.27%
CCOC(=O)C1C(=O)CC(C)(O)C(C(=O)OCC)C1/C=C/c1ccccc1 (stereo not given) | inactive: -9.39%
CCc1cn([C@H]2C[C@H](O)[C@@H](CO)O2)c(=O)[nH]c1=O | inactive: 0.55%

SMILES | inhibition
CSCCC(NC(=O)/C(=C/c1ccc2c(c1)OCO2)NC(=O)c1cccc([N+](=O)[O-])c1)C(=O)O (stereo not given) | inactive: -3.68%
CN1CCc2c(n(CC(O)CN(CCO)CCO)c3ccccc23)C1=O (stereo not given) | inactive: -3.39%
O=[N+]([O-])c1cccc2cn[nH]c12 | inactive: -5.14%
COc1cccc(NC(=O)C2CC(=O)OC23CCOC(C)(C)C3)c1 (stereo not given) | inactive: -4.43%
CC12CCC(C(=O)NCc3ccccn3)(OC1=O)C2(C)C (stereo not given) | inactive: -6.54%
COC(=O)c1ccc(-c2ncc(-c3cccc4ccccc34)o2)cc1 | inactive: -3.27%
CCCNCC(O)COc1ccccc1C(=O)CCc1ccccc1 (stereo not given) | inactive: -5.56%
O=C(Nc1ccccc1C(=O)N1CCCCCC1)c1ccccc1Cl | inactive: -4.72%
O=C1[C@@H]2[C@H](Cc3ccc(O)cc3)N[C@]3(C(=O)Nc4ccccc43)[C@@H]2C(=O)N1c1ccc(F)cc1 | inactive: 5.81%
CCOC(=O)N1CCN(Cc2nc(Cc3cccc(F)c3)no2)CC1 | inactive: -1.53%
COc1ccc(NC(=O)Nc2ccc(C(C)C)cc2)cc1 | inactive: -6.28%
C[C@H]1C[C@@H]2[C@H]([C@@H](O)C[C@@]3(C)[C@H]2CC[C@]3(O)C(=O)CO)[C@@]2(C)C=CC(=O)C=C12 | inactive: -5.34%
O=C(O)c1cc(-c2ccccc2)nc2ccccc12 | inactive: -6.78%
CC(=O)O[C@]1(C(C)=O)CC[C@H]2[C@@H]3C[C@H](C)C4=CC(=O)CC[C@]4(C)[C@H]3CC[C@@]21C | inactive: 3.35%
Nc1ccc2[nH]ncc2c1 | inactive: -13.3%
Cc1ccc(S(=O)(=O)N2CCC(C(=O)N[C@@H](C)C(=O)NC3CCS(=O)(=O)C3)CC2)cc1 (stereo not given in full) | inactive: -6.84%
NNC(=O)c1cc(O)c(O)c(O)c1 | inactive: -7.59%
Cc1ccc2nc(C)c3c(c2c1)OC(C(C)(Cl)Br)C3 (stereo not given) | inactive: -8.65%
CN(C)c1nc(N(C)C)nc(N(C)C)n1 | inactive: -8.07%
O=C(CCc1c[nH]c2ccccc12)NCc1ccco1 | inactive: 4.96%
COC(=O)CSc1nc2ccc(N)cc2s1 | inactive: -12.6%
COc1ccc(NC(=O)C2CSC3c4ccccc4C(=O)N23)cc1 (stereo not given) | inactive: 2.85%
CCN(CCCCCN(C)C)Cc1cc2ccccc2o1 | inactive: -7.75%
